The exact form of at least one protein or probe is not confirmed. Negatives hold for the conditions tested. The comparison behind a weaker result is the experiment's own reference, which may not be listed here. At least one verdict rests on a figure or table, not on a statement of the authors.
Target: PcrA (Bacillus subtilis) (UniProt O34580)
Assay: EMSA
Conditions: 2.5 mM ATPgS, 3 mM Mg2+, 20 mM Tris-HCl pH 7.5, 50 mM NaCl, 3 mM MgCl2, 4 mM DTT, 0.05 mg/mL BSA, 5% glycerol, 0.1 nM 32P-labelled nucleic acid, 15 min, 37 C, recombinant protein, protein details: His6 removed (TAGZyme), label: 32P

The chains behind the UniProt entries cited, without tags or fusion partners. Where a name states a change or a piece, a line headed by the entry shows the natural chain unless it says otherwise.
UniProt O34580: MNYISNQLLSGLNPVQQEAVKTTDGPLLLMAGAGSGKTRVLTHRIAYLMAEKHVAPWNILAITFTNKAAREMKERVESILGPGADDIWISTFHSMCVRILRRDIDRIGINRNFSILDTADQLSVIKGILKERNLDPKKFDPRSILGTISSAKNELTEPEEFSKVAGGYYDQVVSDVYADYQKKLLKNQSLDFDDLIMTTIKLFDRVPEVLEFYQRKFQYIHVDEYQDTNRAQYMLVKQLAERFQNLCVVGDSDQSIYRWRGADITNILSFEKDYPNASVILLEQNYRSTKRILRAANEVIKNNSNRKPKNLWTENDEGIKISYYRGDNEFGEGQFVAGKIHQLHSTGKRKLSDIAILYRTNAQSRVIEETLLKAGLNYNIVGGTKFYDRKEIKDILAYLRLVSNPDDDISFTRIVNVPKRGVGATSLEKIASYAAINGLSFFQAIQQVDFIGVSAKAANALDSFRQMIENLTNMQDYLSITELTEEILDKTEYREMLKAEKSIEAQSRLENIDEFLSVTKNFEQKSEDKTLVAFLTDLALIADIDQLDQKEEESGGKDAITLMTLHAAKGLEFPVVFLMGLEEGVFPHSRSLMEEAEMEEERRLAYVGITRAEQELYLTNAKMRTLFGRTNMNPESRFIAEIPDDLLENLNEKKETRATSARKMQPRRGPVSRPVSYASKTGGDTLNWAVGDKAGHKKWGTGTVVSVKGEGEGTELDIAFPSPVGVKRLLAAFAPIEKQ

“AGACGCTGCCGAATTCTGGCTTGGATCTGATGCTGTCTAGAGGCCTCCACTATGAAATCG / AGCTCATAGATCGATAGTCTCTAGACAGCATCAGATCCAAGCCAGAATTCGGCAGCGTCT / CGATTTCATAGTGGAGGCCTCTAGACAGCA [3'-fork DNA (170/173/171)]”: binds (folded or branched DNA).
“AGACGCTGCCGAATTCTGGCTTGGATCTGATGCTGTCTAGAGGCCTCCACTATGAAATCG / AGCTCATAGATCGATAGTCTCTAGACAGCATCAGATCCAAGCCAGAATTCGGCAGCGTCT / GCGATTTCATAGTGGAGGCCTCTAGACAGCACGCCGTTGAATGGGCGGATGCTAATTACTATCTC / GAGATAGTAATTAGCATCCGCCCATTCAACGGCGTGCTGTCTAGAGACTATCGATCTATGAGCTCTGCAGC [HJ DNA (HJ3 in legend, HJ4 in text; 170/173/345/346)]”: binds (folded or branched DNA).
“AGACGCTGCCGAATTCTGGCTTGGATCTGATGCTGTCTAGAGGCCTCCACTATGAAATCG / AGCTCATAGATCGATAGTCTCTAGACAGCATCAGATCCAAGCCAGAATTCGGCAGCGTCT [flayed DNA (170/173)]”: binds (>10 complexes, folded or branched DNA).
“GCTCTGATGCCGCATAGTTAAGCCAGCCCCGACACCCG (double strand) [38-bp dsDNA (SM44D/SM45D)]”: binds more weakly (only at large PcrA concentrations).
“GCUCUGAUGCCGCAUAGUUAAGCCAGCCCCGACACCCG / CGGGTGTCGGGGCTGGCTTAACTATGCGGCATCAGAGC [38-bp RNA-DNA hybrid (SM44R/SM45D)]”: no binding (no stable complex, up to 400 nM, DNA:RNA hybrid).

From PMC8074105, “Bacillus subtilis PcrA Helicase Removes Trafficking Barriers” (Cells, 2021)
